Some of the results follow. Single values are uncertain here, since repeats match poorly.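 Researchers measured free-swimming zebrafish larvae's O-bend response probability to dark flashes (naive: first five; training: remaining flashes of four 60-flash blocks; test: later 60-flash block) and OMR turning toward alternating leftward/rightward LED motion. Six treated larvae were compared to sixty 0.1% DMSO controls, with |SSMD|≥2 marking a hit.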
Tests used:
Conditions in all cases: 10 µM; pre-incubation: 30-90 min
[1] = test system: Danio rerio larvae (5 dpf, TLF); test: OMR-Perf (SSMD vs DMSO vehicle); higher = higher than vehicle (e.g. higher dark-flash O-bend response probability, or better optomotor performance)
[2] = test system: Danio rerio larvae (5 dpf, TLF); test: Prob-Test (SSMD vs DMSO vehicle); higher = higher than vehicle (e.g. higher dark-flash O-bend response probability, or better optomotor performance)
[3] = test system: Danio rerio larvae (5 dpf, TLF); test: Prob-Naive (SSMD vs DMSO vehicle); higher = higher than vehicle (e.g. higher dark-flash O-bend response probability, or better optomotor performance)
[4] = test system: Danio rerio larvae (5 dpf, TLF); test: Prob-Train (SSMD vs DMSO vehicle); higher = higher than vehicle (e.g. higher dark-flash O-bend response probability, or better optomotor performance)

`CC(C)n1nc(-c2ccc3oc(N)nc3c2)c2c(N)ncnc21` gave an OMR-Perf [1] of -0.0926, a Prob-Test [2] of 0.467 and a Prob-Naive [3] of 0.538. It also gave a Prob-Train [4] of 0.874.
`Cc1ccc(Nc2c(F)cccc2Cl)c(CC(=O)O)c1` [Lumiracoxib] showed an OMR-Perf [1] of -0.3, a Prob-Test [2] of -0.111 and a Prob-Naive [3] of -0.996. It also gave a Prob-Train [4] of -0.68.
Work on `CC(C)[C@H]1CC[C@H](C(=O)N[C@H](Cc2ccccc2)C(=O)O)CC1` [Nateglinide] yielded an OMR-Perf [1] of 0.0403, a Prob-Test [2] of -0.194 and a Prob-Naive [3] of -0.199. For the same molecule, the Prob-Train [4] was -0.191.
In the case of `COC(c1ccccc1)(c1ccccc1)[C@H](Oc1nc(C)cc(C)n1)C(=O)O` [Ambrisentan], the OMR-Perf [1] is reported as -0.151, the Prob-Test [2] is reported as 0.0913 and the Prob-Naive [3] is reported as -0.151. The Prob-Train [4] was 0.0748.
For `Cc1ccccc1-n1c(Cn2nc(-c3cccc(O)c3)c3c(N)ncnc32)nc2cccc(C)c2c1=O`, the OMR-Perf [1] was 0.299, the Prob-Test [2] was -0.874 and the Prob-Naive [3] was -0.13. It also gave a Prob-Train [4] of -0.192.
Molecule `Cc1cc(C(C)(C)C)c(O)c(C)c1CC1=NCCN1.Cl` [Oxymetazoline HCl] has an OMR-Perf [1] of 0.0746, a Prob-Test [2] of -0.176 and a Prob-Naive [3] of 0.644. The Prob-Train [4] was -0.0175.
With `C[C@H]1CCO[C@H]2Cn3cc(C(=O)NCc4ccc(F)cc4F)c(=O)c(O)c3C(=O)N21` the OMR-Perf [1] was 0.00408, the Prob-Test [2] was 0.0871 and the Prob-Naive [3] was -0.0101. For the same molecule, the Prob-Train [4] was 0.0433.
Work on `CN1Cc2c(N)cccc2C(c2ccccc2)C1.O=C(O)/C=C\C(=O)O` (centres undefined) [Nomifensine Maleate] yielded an OMR-Perf [1] of 0.601, a Prob-Test [2] of 0.606 and a Prob-Naive [3] of 0.298. The Prob-Train [4] was 0.579.
Work on `CNC[C@H](O)c1ccc(O)c(O)c1` [L-Adrenaline] yielded an OMR-Perf [1] of -0.134, a Prob-Test [2] of 0.0493 and a Prob-Naive [3] of -0.296. For the same molecule, the Prob-Train [4] was -0.0838.
`NC(=O)c1ncn([C@H]2O[C@H](CO)[C@@H](O)[C@H]2O)n1` [Ribavirin] was tested, and the OMR-Perf [1] was -0.653, the Prob-Test [2] was -0.0969 and the Prob-Naive [3] was 0.402. The Prob-Train [4] was 0.267.
Work on `CN(C)CCN1C(=O)c2ccccc2N(C)c2ccccc21.Cl` [Dibenzepine HCl] yielded an OMR-Perf [1] of -0.414, a Prob-Test [2] of -0.302 and a Prob-Naive [3] of 0.433. The Prob-Train [4] was -0.292.
Work on `Cc1[nH]c2ccccc2c1CCNCc1ccc(/C=C/C(=O)NO)cc1` [Panobinostat (LBH589)] yielded an OMR-Perf [1] of -0.241, a Prob-Test [2] of 0.188 and a Prob-Naive [3] of 0.0243. The Prob-Train [4] was -0.098.
In the case of `CC(NC(=O)c1ccccc1/N=C/c1c(O)ccc2ccccc12)c1ccccc1` (centres undefined) [Sirtinol], the OMR-Perf [1] is reported as 0.179, the Prob-Test [2] is reported as -0.219 and the Prob-Naive [3] is reported as -1.24. It also gave a Prob-Train [4] of -0.537.
For `CCOc1cc([C@@H](CS(C)(=O)=O)N2C(=O)c3cccc(NC(C)=O)c3C2=O)ccc1OC`, the OMR-Perf [1] was 0.302, the Prob-Test [2] was 0.634 and the Prob-Naive [3] was -0.577. It also gave a Prob-Train [4] of -0.0143.
In the case of `Nc1cccc2c1CN(C1CCC(=O)NC1=O)C2=O` (centres undefined) [Lenalidomide (CC-5013)], the OMR-Perf [1] is reported as -0.528, the Prob-Test [2] is reported as -0.0369 and the Prob-Naive [3] is reported as -0.162. It also gave a Prob-Train [4] of -0.316.
In the case of `Cc1cc(/N=N/c2ccc(S(=O)(=O)Nc3ccccn3)cc2)c(N)cc1O`, the OMR-Perf [1] is reported as -0.289, the Prob-Test [2] is reported as -0.00536 and the Prob-Naive [3] is reported as 0.146. For the same molecule, the Prob-Train [4] was -0.238.
`O=C([O-])Cc1ccccc1Nc1c(Cl)cccc1Cl.[Na+]` [Diclofenac Sodium] showed an OMR-Perf [1] of 0.378, a Prob-Test [2] of 0.595 and a Prob-Naive [3] of 0.421. It also gave a Prob-Train [4] of 0.0266.
`CO/N=C(/C(=O)N[C@H]1C(=O)N2C(C(=O)O)=C(CSC(=O)c3ccco3)CS[C@H]12)c1csc(N)n1.Cl` [Ceftiofur HCl] gave an OMR-Perf [1] of -0.565, a Prob-Test [2] of 0.0837 and a Prob-Naive [3] of -0.383. It also gave a Prob-Train [4] of 0.0814.
Work on `Cc1ccc(NCCCc2ccccc2)c(N)c1` yielded an OMR-Perf [1] of -0.135, a Prob-Test [2] of 0.0841 and a Prob-Naive [3] of -0.452. For the same molecule, the Prob-Train [4] was -0.109.
`C[C@]12C=CC(=O)C=C1CC[C@@H]1[C@H]2[C@H](O)C[C@@]2(C)[C@H]1CC[C@@]2(O)C(=O)CO` [Prednisolone] showed an OMR-Perf [1] of 0.668, a Prob-Test [2] of -0.376 and a Prob-Naive [3] of -0.0545. For the same molecule, the Prob-Train [4] was -0.0386.
With `CNCC[C@H](Oc1cccc2ccccc12)c1cccs1.Cl` [Duloxetine HCl] the OMR-Perf [1] was -0.0601, the Prob-Test [2] was -1.07 and the Prob-Naive [3] was -0.861. For the same molecule, the Prob-Train [4] was -0.867.
`Nc1c(CC(=O)[O-])cccc1C(=O)c1ccc(Br)cc1.[Na+]` [Bromfenac Sodium] was tested, and the OMR-Perf [1] was 0.366, the Prob-Test [2] was -0.464 and the Prob-Naive [3] was -0.144. For the same molecule, the Prob-Train [4] was -0.561.
With `[I-].[K+]` [Potassium Iodide] the OMR-Perf [1] was -0.608, the Prob-Test [2] was 0.119 and the Prob-Naive [3] was 0.0825. The Prob-Train [4] was 0.238.
For `COc1cccc2cc(-c3nc([C@H]4CC[C@H](C(=O)O)CC4)n4ncnc(N)c34)[nH]c12`, the OMR-Perf [1] was 0.126, the Prob-Test [2] was -0.496 and the Prob-Naive [3] was -0.13. For the same molecule, the Prob-Train [4] was 0.126.
`CS(=O)(=O)c1cccc(CNc2nc(Nc3ccc4c(c3)CCC(=O)N4)ncc2C(F)(F)F)c1` showed an OMR-Perf [1] of -0.585, a Prob-Test [2] of -0.615 and a Prob-Naive [3] of -0.296. For the same molecule, the Prob-Train [4] was -0.407.
With `C[C@@H]1C[C@H]2[C@@H]3CCC4=CC(=O)C=C[C@]4(C)[C@]3(F)[C@H](O)C[C@]2(C)[C@]1(O)C(=O)CO` [Dexamethasone (DHAP)] the OMR-Perf [1] was 1.57, the Prob-Test [2] was 0.308 and the Prob-Naive [3] was -0.372. The Prob-Train [4] was 0.241.

Reference: the supplement of paper PMC10727501
